Assay [1] addresses Flag-tagged BPTF fragment F5 (1786-2254) (human) (UniProt Q12830). Briefly: co-IP; tagged proteins co-transfected in 293T cells; lysate (50 mM Tris-HCl pH 7.5, 150 mM NaCl, 0.5% NP-40, 1 mM EDTA) incubated overnight with M2 (anti-Flag) beads, three washes, western blot.
Assay [2] addresses Flag-tagged BPTF fragment F6 (2246-2626) (human) (UniProt Q12830). Described as above.
In assay [3] the target is Flag-tagged BPTF fragment F3 (1002-1389) (human) (UniProt Q12830). The description is as above.
The target of assay [4] is androgen receptor (AR), endogenous (human (endogenous in Rv1 and C4-2)) (UniProt P10275). Briefly: co-IP; endogenous proteins in C4-2 cell lysate (50 mM Tris-HCl pH 7.5, 150 mM NaCl, 0.5% NP-40, 1 mM EDTA); rabbit primary antibody overnight, TrueBlot anti-rabbit IgG beads; also after androgen deprivation for 3 days and 1 nM R1881 for 24 h, enzalutamide (5 μM) for 24 h, AU1 for 24 h or BPTF knock-down.

Protein sequences, listed by entry. Tags and fused reporters are not part of them.
UniProt P10275: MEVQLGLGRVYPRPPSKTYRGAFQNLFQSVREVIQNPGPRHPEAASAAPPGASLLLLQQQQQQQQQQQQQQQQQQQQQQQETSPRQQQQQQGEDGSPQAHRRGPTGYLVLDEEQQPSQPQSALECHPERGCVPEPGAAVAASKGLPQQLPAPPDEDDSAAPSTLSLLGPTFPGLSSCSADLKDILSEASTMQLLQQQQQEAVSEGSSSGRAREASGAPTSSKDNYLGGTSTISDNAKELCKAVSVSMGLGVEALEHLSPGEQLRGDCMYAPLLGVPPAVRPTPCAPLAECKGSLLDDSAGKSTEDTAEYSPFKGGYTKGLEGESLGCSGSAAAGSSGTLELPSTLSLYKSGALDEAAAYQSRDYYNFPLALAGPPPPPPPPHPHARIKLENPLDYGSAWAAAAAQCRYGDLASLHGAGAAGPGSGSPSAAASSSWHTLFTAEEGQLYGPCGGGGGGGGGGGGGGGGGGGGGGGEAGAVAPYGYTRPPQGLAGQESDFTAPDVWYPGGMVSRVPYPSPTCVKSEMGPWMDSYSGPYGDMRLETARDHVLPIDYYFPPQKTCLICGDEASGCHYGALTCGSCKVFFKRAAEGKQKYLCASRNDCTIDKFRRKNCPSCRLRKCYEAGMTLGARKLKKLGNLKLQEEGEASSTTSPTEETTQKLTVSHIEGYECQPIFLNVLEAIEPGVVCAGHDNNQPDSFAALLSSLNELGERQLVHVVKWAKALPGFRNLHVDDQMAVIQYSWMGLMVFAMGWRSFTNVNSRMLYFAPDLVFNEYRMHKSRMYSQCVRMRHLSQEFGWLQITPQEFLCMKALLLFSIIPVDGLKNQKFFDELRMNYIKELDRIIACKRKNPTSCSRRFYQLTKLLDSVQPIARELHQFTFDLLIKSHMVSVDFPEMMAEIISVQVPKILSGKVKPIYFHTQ

Assay [5] shares this target. The assay is described as follows: co-IP; endogenous proteins in Rv1 cell lysate (50 mM Tris-HCl pH 7.5, 150 mM NaCl, 0.5% NP-40, 1 mM EDTA); rabbit primary antibody overnight, TrueBlot anti-rabbit IgG beads; also after AU1 for 24 h or BPTF knock-down.

The text below walks through data of paper PMC12820202.

These are yes or no findings as the source states them, for the method shown. In cells and extracts the contact can be indirect. Some entries that bind do so weakly or less than the wild type. For some assays here: Tags and fused reporters may be left off the sequences shown.

B1: HA-FOXA1 (protein, UniProt P55317 1-472)
chain: MLGTVKMEGHETSDWNSYYADTQEAYSSVPVSNMNSGLGSMNSMNTYMTMNTMTTSGNMTPASFNMSYANPGLGAGLSPGAVAGMPGGSAGAMNSMTAAGVTAMGTALSPSGMGAMGAQQAASMNGLGPYAAAMNPCMSPMAYAPSNLGRSRAGGGGDAKTFKRSYPHAKPPYSYISLITMAIQQAPSKMLTLSEIYQWIMDLFPYYRQNQQRWQNSIRHSLSFNDCFVKVARSPDKPGKGSYWTLHPDSGNMFENGCYLRRQKRFKCEKQPGAGGGGGSGSGGSGAKGGPESRKDPSGASNPSADSPLHRGVHGKTGQLEGAPAPGPAASPQTLDHSGATATGGASELKTPASSTAPPISSGPGALASVPASHPAHGLAPHESQLHLKGDPHYSFNHPFSINNLMSSSEQQHKLDFKAYEQALQYSPYGSTLPASLPLGSASVTTRSPIEPSALEPAYYQGVYSRPVLNTS
On to B1, for which the binding entry in assay [1], in assay [2] and in assay [3] was “binds” each time.

B2: FOXA1, endogenous (protein, UniProt P55317 1-472)
chain: B1 chain
B2: the binding result in assay [4] and in assay [5] was “binds” each time.
